Source: the supplement of paper PMC3334620
In all, about 33,000 sequences were measured (“E-score (-0.5 to 0.5)”: median about -0.0034, highest 2% from about 0.25 on). The list shows a part of the results.

What follows are sequences tested against T1, Yap3 (UniProt P38749) (assay: PBM E-score (8-mer binding enrichment) (E-score (-0.5 to 0.5)); higher = stronger / more preferred TF binding). Details: protein concentration: 100 nM; construct: GST-full length.
T1 sequence: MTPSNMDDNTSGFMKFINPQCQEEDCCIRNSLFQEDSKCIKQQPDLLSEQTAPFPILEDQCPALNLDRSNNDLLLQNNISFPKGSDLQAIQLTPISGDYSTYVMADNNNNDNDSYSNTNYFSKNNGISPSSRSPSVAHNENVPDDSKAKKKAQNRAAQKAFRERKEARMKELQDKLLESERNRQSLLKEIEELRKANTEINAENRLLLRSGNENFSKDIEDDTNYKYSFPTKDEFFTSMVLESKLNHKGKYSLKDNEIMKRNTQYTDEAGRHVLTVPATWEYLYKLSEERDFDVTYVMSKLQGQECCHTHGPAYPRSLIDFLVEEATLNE
How it was run: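 Yeast transcription factors, full-length or as DNA-binding domains, were expressed with a GST tag using PURExpress in vitro transcription/translation. At about 100-200 nM they were applied to universal all-10-mer Agilent arrays, double-stranded by primer extension on fresh or once-stripped slides. Fluorescent anti-GST detected bound protein, and masliner normalised the scans. E-scores for ungapped eight-base words, pooled with reverse complements, came from the Universal PBM Analysis Suite.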

Sequence	PBM E-score
AAATAGTC	-0.0119
GAGAAGGC	-0.158
CACCAAAG	-0.0224
CTACCTGA	-0.141
AGACCCAT	-0.13
ACGGAGAA	0.175
CCGTCTTC	-0.0587
AATTGCCT	0.0982
ATATTGAG	0.194
AAGCTAAC	0.0596
CTCCCTGA	-0.234
TATGTCCA	-0.0626
GCAGCAAC	-0.00458
GGTGCAGA	-0.236
CGGGAGCA	-0.121
CACTTTGC	0.0341
ATGAACCC	-0.0359
AGGCCGAT	-0.125
AATCCATT	0.185
AACTTCCA	-0.0704
AGCGCTGG	-0.0762
CAACTAGG	0.0485
ATACATCC	0.0891
CAATTTCC	0.0859
GATGCAGC	-0.00792

Sequence	PBM E-score
CAGGTATC	-0.0433
TCACCACA	0.24
ATTACAAA	0.37
AACAATAC	0.0469
CATTTTTC	0.16
GTCTCATA	0.0492
AATGCGCA	0.295
AGTTACGG	-0.0635
CTTCGCAC	-0.0403
TGGAACAA	0.144
AATTCCTG	-0.00277
ATGTATTG	0.241
ACAAGAGC	-0.0498
GTGCGTAA	0.0963
CAGACAGC	-0.0819
CGGCCTTC	-0.172
CCATGTAC	0.0608
ACTAATAC	0.288
GGTTTGTA	0.0503
ACCAGGGG	-0.359
AAATCGAG	0.00012
CTGTTAAA	0.177
GCCGTAAC	-0.112
CGCTGCAC	-0.0733
ATTCAGCG	0.0709

Sequence	PBM E-score
AAGTCTTC	-0.098
AAATACGC	0.151
AGACCCTA	-0.116
CAAGCCAC	-0.279
CCGCCCGA	-0.047
ATACGAAA	0.21
AAATCCGC	-0.0284
CGGCACAA	0.00092
ACAATTCG	0.145
AGATGTTC	-0.111
GACCCACA	0.111
AAGTATAA	0.249
TCGAATCA	0.0851
ACTCCTTA	-0.0776
CATTCCTA	0.0844
GCCCACAA	-0.141
ACGGCACC	-0.18
AGCTCGAA	0.011
CAATGGCG	-0.126
TCGAGGCA	0.0984
GTGCCGCA	-0.0486
TCATTCCA	0.0786
AATACTGC	0.0602
CAGCCGGA	0.158
AGCCTAGA	-0.199

Another view of some results above.
AATCCATT
  PBM E-score: 0.185
AACTTCCA
  PBM E-score: -0.0704
ACCAGGGG
  PBM E-score: -0.359
ATACGAAA
  PBM E-score: 0.21

Four entries from above, with each value named:
ATGTATTG
  PBM E-score: 0.241
ACAAGAGC
  PBM E-score: -0.0498
GTGCGTAA
  PBM E-score: 0.0963
CAGACAGC
  PBM E-score: -0.0819

(further entries)

Sequence	PBM E-score
CATAGAAG	-0.0416
CAGCGGTA	0.104
ACGCCGCA	0.00689
TCCCTCCA	-0.266
CGTAGGGC	-0.148
AATTGACA	0.0681
GAAATGGC	-0.037
AAAAGCGC	-0.00165
GATAAATC	0.00972
ACGGGACT	-0.167
CAGTTACC	-0.0283
CGAGAGCC	-0.31
ATTGTCAA	0.106
AACTAACC	0.21
ACCTAAGT	0.177
AACCCCAC	-0.079
GCGGCGTA	0.0911
GACTCCCC	-0.328
CAAGCACG	-0.0217
AACCCCAT	-0.0254
TCTTCCCA	-0.223
CGGCCCAG	-0.332
CCTCGACG	-0.116
ACCACTAG	0.0307
ACCGTCAT	0.0559

Sequence	PBM E-score
CAGGGGTA	-0.101
CGCTAGCG	-0.112
AACCTTGT	-0.296
CCAATCCA	-0.0532
ACTCCAGC	-0.134
CCCGTCCG	-0.285
AAGAATGA	0.0757
AAGATGCT	-0.0179
GCGACAGC	-0.135
ACGTGGCC	-0.2
CGTTTCGA	-0.116
AAACTACC	0.133
AGGAGTGA	-0.0623
ATTAATTA	0.241
CAACCCGA	0.0578
ACATTGTG	0.0748
ACATGGCA	-0.0266
AGAGGGGG	-0.389
ACGCGAAG	0.0012
AAACACGG	-0.167
AAAGCTGG	-0.0132
GTGTCAAC	-0.133
AGAATTTG	0.107
GCTCCGTA	0.00319
ATATATAC	0.299

Sequence	PBM E-score
CATTCAAA	0.15
AGCTCCCG	-0.352
GTAGGAAA	0.121
AACCAGGG	-0.0811
TATATCCA	0.157
CACAGTCG	-0.0364
ATGCAACA	-0.00323
AATTGTCT	0.152
TACCGATA	0.0998
CAATTTTA	0.234
AGGGTTGG	0.153
GCCTATAA	0.0733
GCGGACAC	-0.0505
AACCCAGC	-0.19
CAACCCCG	-0.194
CGAACTCC	0.0291
GCCTCAGA	-0.0362
GCACGCTA	-0.0598
CTTGGTCA	0.0339
CGCTCATC	-0.00331
GCGGAAGA	0.0363
AGCGGGAG	-0.153
GGGTCACC	-0.343
ATATCCCC	0.0958
CAGATCGC	-0.036

Sequence	PBM E-score
ATGGGTCC	-0.192
AGCAGCTC	-0.291
AGGGCTAC	-0.147
GCGGCCCC	-0.403
TGTTTAAA	0.176
TATGGGCA	0.059
CGCGTGTC	0.145
GGATTTCA	0.0355
ATTTTAGC	-0.001
AGGTCAGG	-0.281
ATCTGGAC	-0.205
ACAGCTAA	-0.123
ATTAGGTG	0.00971
GAAAAGCC	-0.0554
ATCATACA	0.183
GAACAAGC	0.0587
ATCATTAG	0.129
ACCTGGTA	-0.124
CTGAACAG	-0.0257
GACTCACA	-0.0312
AGTTGATA	0.146
AGTCACTC	-0.112
